# This is one part of the list.
# Key:
# Assay in all cases: glycan array binding signal (z-score within array); higher = stronger binding
# Settings in all cases: glycan notation: IUPAC condensed, linker removed
# [1] = molecular target: Neu5Ac(a2-3)Gal(b1-4)GlcNAc(b1-2)[Neu5Ac(a2-3)Gal(b1-4)GlcNAc(b1-4)]Man(a1-3)[GlcNAc(b1-4)][Neu5Ac(a2-3)Gal(b1-4)GlcNAc(b1-2)[Neu5Ac(a2-3)Gal(b1-4)GlcNAc(b1-6)]Man(a1-6)]Man(b1-4)GlcNAc(b1-4)GlcNAc
# Procedure, shortened: (§1)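 The binding signal is a Z-score computed within each array. Data were drawn from 3228 arrays in the Consortium for Functional Glycomics database, restricted to those with a known protein sequence. Scores were averaged over arrays of the same protein sequence at different concentrations or buffers, and over linkers, and negative values can be taken as non-binding.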
# [2] = molecular target: Neu5Ac(a2-3)Gal(b1-4)GlcNAc(b1-2)[Neu5Ac(a2-3)Gal(b1-4)GlcNAc(b1-4)]Man(a1-3)[GlcNAc(b1-4)][Neu5Ac(a2-3)Gal(b1-4)GlcNAc(b1-4)Man(a1-6)]Man(b1-4)GlcNAc(b1-4)GlcNAc
# Procedure, shortened: as §1
# [3] = molecular target: Neu5Ac(a2-3)Gal(b1-4)GlcNAc(b1-2)[Neu5Ac(a2-3)Gal(b1-4)GlcNAc(b1-6)]Man(a1-6)[Neu5Ac(a2-3)Gal(b1-4)GlcNAc(b1-2)Man(a1-3)][GlcNAc(b1-4)]Man(b1-4)GlcNAc(b1-4)GlcNAc
# Procedure, shortened: as §1
# [4] = molecular target: Neu5Ac(a2-3)Gal(b1-4)GlcNAc(b1-3)Gal
# Procedure, shortened: as §1
# [5] = molecular target: Neu5Ac(a2-3)Gal(b1-4)GlcNAc(b1-3)Gal(b1-3)GlcNAc
# Procedure, shortened: as §1
# [6] = molecular target: Neu5Ac(a2-3)Gal(b1-4)GlcNAc(b1-3)Gal(b1-4)GlcNAc
# Procedure, shortened: as §1
# [7] = molecular target: Neu5Ac(a2-3)Gal(b1-4)GlcNAc(b1-3)Gal(b1-4)GlcNAc(b1-2)Man(a1-3)[Neu5Ac(a2-3)Gal(b1-4)GlcNAc(b1-3)Gal(b1-4)GlcNAc(b1-2)Man(a1-6)]Man(b1-4)GlcNAc(b1-4)GlcNAc
# Procedure, shortened: as §1
# [8] = molecular target: Neu5Ac(a2-3)Gal(b1-4)GlcNAc(b1-3)Gal(b1-4)GlcNAc(b1-3)Gal(b1-4)GlcNAc
# Procedure, shortened: as §1
# [9] = molecular target: Neu5Ac(a2-3)Gal(b1-4)GlcNAc(b1-3)Gal(b1-4)GlcNAc(b1-3)Gal(b1-4)GlcNAc(b1-2)Man(a1-3)[Neu5Ac(a2-3)Gal(b1-4)GlcNAc(b1-3)Gal(b1-4)GlcNAc(b1-3)Gal(b1-4)GlcNAc(b1-2)Man(a1-6)]GalNAc
# Procedure, shortened: as §1
# [10] = molecular target: Neu5Ac(a2-3)Gal(b1-4)GlcNAc(b1-3)Gal(b1-4)GlcNAc(b1-3)GalNAc
# Procedure, shortened: as §1
# [11] = molecular target: Neu5Ac(a2-3)Gal(b1-4)GlcNAc(b1-3)Gal(b1-4)GlcNAc(b1-3)[Neu5Ac(a2-3)Gal(b1-4)GlcNAc(b1-3)Gal(b1-4)GlcNAc(b1-6)]GalNAc
# Procedure, shortened: as §1
# [12] = molecular target: Neu5Ac(a2-3)Gal(b1-4)GlcNAc(b1-3)Gal(b1-4)GlcNAc(b1-6)[Gal(b1-3)]GalNAc
# Procedure, shortened: as §1
# [13] = molecular target: Neu5Ac(a2-3)Gal(b1-4)GlcNAc(b1-3)Gal(b1-4)[Fuc(a1-3)]GlcNAc
# Procedure, shortened: as §1
# [14] = molecular target: Neu5Ac(a2-3)Gal(b1-4)GlcNAc(b1-3)GalNAc
# Procedure, shortened: as §1
# [15] = molecular target: Neu5Ac(a2-3)Gal(b1-4)GlcNAc(b1-3)[Neu5Ac(a2-3)Gal(b1-4)GlcNAc(b1-6)]GalNAc
# Procedure, shortened: as §1
# [16] = molecular target: Neu5Ac(a2-3)Gal(b1-4)GlcNAc(b1-6)GalNAc
# Procedure, shortened: as §1
# [17] = molecular target: Neu5Ac(a2-3)Gal(b1-4)GlcNAc(b1-6)[Gal(b1-3)]GalNAc
# Procedure, shortened: as §1
# [18] = molecular target: Neu5Ac(a2-3)Gal(b1-4)GlcNAc(b1-6)[Neu5Ac(a2-3)Gal(b1-3)]GalNAc
# Procedure, shortened: as §1
# [19] = molecular target: Neu5Ac(a2-3)Gal(b1-4)GlcNAc6S
# Procedure, shortened: as §1
# [20] = molecular target: Neu5Ac(a2-3)Gal(b1-4)[Fuc(a1-3)]GlcNAc
# Procedure, shortened: as §1
# [21] = molecular target: Neu5Ac(a2-3)Gal(b1-4)[Fuc(a1-3)]GlcNAc(b1-2)Man
# Procedure, shortened: as §1
# [22] = molecular target: Neu5Ac(a2-3)Gal(b1-4)[Fuc(a1-3)]GlcNAc(b1-3)Gal
# Procedure, shortened: as §1
# [23] = molecular target: Neu5Ac(a2-3)Gal(b1-4)[Fuc(a1-3)]GlcNAc(b1-3)Gal(b1-4)GlcNAc
# Procedure, shortened: as §1
# [24] = molecular target: Neu5Ac(a2-3)Gal(b1-4)[Fuc(a1-3)]GlcNAc(b1-3)Gal(b1-4)[Fuc(a1-3)]GlcNAc(b1-3)Gal(b1-4)[Fuc(a1-3)]GlcNAc
# Procedure, shortened: as §1
# [25] = molecular target: Neu5Ac(a2-3)Gal(b1-4)[Fuc(a1-3)]GlcNAc(b1-3)GalNAc
# Procedure, shortened: as §1
# [26] = molecular target: Neu5Ac(a2-3)Gal(b1-4)[Fuc(a1-3)]GlcNAc(b1-6)[Gal(b1-3)]GalNAc
# Procedure, shortened: as §1
# [27] = molecular target: Neu5Ac(a2-3)Gal(b1-4)[Fuc(a1-3)]GlcNAc(b1-6)[Neu5Ac(a2-3)Gal(b1-3)]GalNAc
# Procedure, shortened: as §1
# [28] = molecular target: Neu5Ac(a2-3)Gal(b1-4)[Fuc(a1-3)]GlcNAc6S
# Procedure, shortened: as §1
# [29] = molecular target: Neu5Ac(a2-3)Gal6S(b1-4)GlcNAc
# Procedure, shortened: as §1
# [30] = molecular target: Neu5Ac(a2-3)Gal6S(b1-4)[Fuc(a1-3)]GlcNAc
# Procedure, shortened: as §1
# Neu5Ac(a2-3)GalNAc = molecular target: Neu5Ac(a2-3)GalNAc
# Procedure, shortened: as §1
# [31] = molecular target: Neu5Ac(a2-3)GalNAc(b1-4)GlcNAc
# Procedure, shortened: as §1
# [32] = molecular target: Neu5Ac(a2-3)[GalNAc(b1-4)]Gal(b1-4)Glc
# Procedure, shortened: as §1
# [33] = molecular target: Neu5Ac(a2-3)[GalNAc(b1-4)]Gal(b1-4)GlcNAc
# Procedure, shortened: as §1
# [34] = molecular target: Neu5Ac(a2-3)[GalNAc(b1-4)]Gal(b1-4)GlcNAc(b1-3)GalNAc
# Procedure, shortened: as §1
# [35] = molecular target: Neu5Ac(a2-3)[Neu5Ac(a2-6)]GalNAc
# Procedure, shortened: as §1
# Neu5Ac(a2-6)Gal = molecular target: Neu5Ac(a2-6)Gal
# Procedure, shortened: as §1
# [36] = molecular target: Neu5Ac(a2-6)Gal(b1-3)GlcNAc(b1-3)[Gal(b1-4)GlcNAc(b1-6)]Gal(b1-4)Glc
# Procedure, shortened: as §1
# Neu5Ac(a2-6)Gal(b1-4)Glc = molecular target: Neu5Ac(a2-6)Gal(b1-4)Glc
# Procedure, shortened: as §1
# [37] = molecular target: Neu5Ac(a2-6)Gal(b1-4)GlcNAc
# Procedure, shortened: as §1
# [38] = molecular target: Neu5Ac(a2-6)Gal(b1-4)GlcNAc(b1-2)Man
# Procedure, shortened: as §1
# [39] = molecular target: Neu5Ac(a2-6)Gal(b1-4)GlcNAc(b1-2)Man(a1-3)Man(b1-4)GlcNAc(b1-4)GlcNAc
# Procedure, shortened: as §1
# [40] = molecular target: Neu5Ac(a2-6)Gal(b1-4)GlcNAc(b1-2)Man(a1-3)[Gal(b1-4)GlcNAc(b1-2)Man(a1-6)]Man(b1-4)GlcNAc(b1-4)GlcNAc
# Procedure, shortened: as §1
# [41] = molecular target: Neu5Ac(a2-6)Gal(b1-4)GlcNAc(b1-2)Man(a1-3)[GlcNAc(b1-2)Man(a1-6)]Man(b1-4)GlcNAc(b1-4)GlcNAc
# Procedure, shortened: as §1
# [42] = molecular target: Neu5Ac(a2-6)Gal(b1-4)GlcNAc(b1-2)Man(a1-3)[GlcNAc(b1-4)][Neu5Ac(a2-6)Gal(b1-4)GlcNAc(b1-2)Man(a1-6)]Man(b1-4)GlcNAc(b1-4)GlcNAc
# Procedure, shortened: as §1
binder,measurement,setting,value
"YghJ (Escherichia coli), E3PJ90 (protein) MNKKFKYKKSLLAAILSATLLAGCDGGGSGSSSDTPPVDSGTGSLPEVKPDPTPNPEPTPEPTPDPEPTPEPIPDPEPTPEPEPEPVPTKTGYLTLGGSQRVTGATCNGESSDGFTFKPGEDVTCVAGNTTIATFNTQSEAARSLRAVEKVSFSLEDAQELAGSDDKKSNAVSLVTSSNSCPANTEQVCLTFSSVIESKRFDSLYKQIDLAPEEFKKLVNEEVENNAATDKAPSTHTSPVVPVTTPGTKPDLNASFVSANAEQFYQYQPTEIILSEGRLVDSQGYGVAGVNYYTNSGRGVTGENGEFSFSWGEAISFGIDTFELGSVRGNKSTIALTELGDEVRGANIDQLIHRYSTTGQNNTRVVPDDVRKVFAEYPNVINEIINLSLSNGATLGEGEQVVNLPNEFIEQFNTGQAKEIDTAICAKTDGCNEARWFSLTTRNVNDGQIQGVINKLWGVDTNYKSVSKFHVFHDSTNFYGSTGNARGQAVVNISNAAFPILMARNDKNYWLAFGEKRAWDKNELAYITEAPSIVRPENVTRETASFNLPFISLGQVGDGKLMVIGNPHYNSILRCPNGYSWNGGVNKDGQCTLNSDPDDMKNFMENVLRYLSNDRWLPDAKSSMTVGTNLETVYFKKHGQVLGNSAPFAFHKDFTGITVKPMTSYGNLNPDEVPLLILNGFEYVTQWGSDPYSIPLRADTSKPKLTQQDVTDLIAYMNKGGSVLIMENVMSNLKEESASGFVRLLDAAGLSMALNKSVVNNDPQGYPDRVRQRRSTPIWVYERYPAVDGKPPYTIDDTTKEVIWKYQQENKPDDKPKLEVASWQEEVEGKQVTQFAFIDEADHKTPESLAAAKQRILDAFPGLEVCKDSDYHYEVNCLEYRPGTDVPVTGGMYVPQYTQLDLSADTAKAMLQAADLGTNIQRLYQHELYFRTNGRQGERLNSVDLERLYQNMSVWLWNETKYRYEEGKEDELGFKTFTEFLNCYTNNAYVGTQCSAELKKSLIDNKMIYGEESSKAGMMNPSYPLNYMEKPLTRLMLGRSWWDLNIKVDVEKYPGVVNTNGETVTQNINLYSAPTKWFAGNMQSTGLWAPAQQEVSIESKSTVPVTVTVALADDLTGREKHEVSLNRPPRVTKTYDLKANDKVTFKVPYGGLIYIKGDSKEVQSADFTFTGVVKAPFYKDGKWQHDLNSPAPLGELESASFVYTTPKKNLNASNYTGGLEQFANDLDTFASSMNDFYGRDSEDGKHRMFTYKNLPGHKHRFANDVQISIGDAHSGYPVMNSSFSPNSTTLPTTPLNDWLIWHEVGHNAAETPLTVPGATEVANNVLALYMQDRYLGKMNRVADDITVAPEYLEESNGQAWARGGAGDRLLMYAQLKEWAEKNFDIKKWYPDGTPLPEFYSEREGMKGWNLFQLMHRKARGDEVSNDKFGGKNYCAESNGNAADTLMLCASWVAQTDLSEFFKKWNPGANAYQLPGASEMSFEGGVSQSAYNTLASLDLPKPEQGPETINQVTEHKMSAE",glycan array binding signal (z-score),[1],-1
same,glycan array binding signal (z-score),[2],-0.172
same,glycan array binding signal (z-score),[3],0.765
same,glycan array binding signal (z-score),[4],0.236
same,glycan array binding signal (z-score),[5],0.515
same,glycan array binding signal (z-score),[6],-0.616
same,glycan array binding signal (z-score),[7],1.37
same,glycan array binding signal (z-score),[8],-1.24
same,glycan array binding signal (z-score),[9],2.64
same,glycan array binding signal (z-score),[10],0.399
same,glycan array binding signal (z-score),[11],1.36
same,glycan array binding signal (z-score),[12],-0.708
same,glycan array binding signal (z-score),[13],-1.22
same,glycan array binding signal (z-score),[14],-1.07
same,glycan array binding signal (z-score),[15],0.068
same,glycan array binding signal (z-score),[16],1.94
same,glycan array binding signal (z-score),[17],-0.92
same,glycan array binding signal (z-score),[18],-0.991
same,glycan array binding signal (z-score),[19],-0.498
same,glycan array binding signal (z-score),[20],-0.663
same,glycan array binding signal (z-score),[21],0.386
same,glycan array binding signal (z-score),[22],-1.23
same,glycan array binding signal (z-score),[23],1.47
same,glycan array binding signal (z-score),[24],0.993
same,glycan array binding signal (z-score),[25],1.46
same,glycan array binding signal (z-score),[26],0.474
same,glycan array binding signal (z-score),[27],0.655
same,glycan array binding signal (z-score),[28],-0.945
same,glycan array binding signal (z-score),[29],0.695
same,glycan array binding signal (z-score),[30],-2.1
same,glycan array binding signal (z-score),Neu5Ac(a2-3)GalNAc,-1.18
same,glycan array binding signal (z-score),[31],-1
same,glycan array binding signal (z-score),[32],-0.367
same,glycan array binding signal (z-score),[33],0.585
same,glycan array binding signal (z-score),[34],-0.417
same,glycan array binding signal (z-score),[35],-0.806
same,glycan array binding signal (z-score),Neu5Ac(a2-6)Gal,-0.16
same,glycan array binding signal (z-score),[36],-0.01
same,glycan array binding signal (z-score),Neu5Ac(a2-6)Gal(b1-4)Glc,-0.516
same,glycan array binding signal (z-score),[37],-0.475
same,glycan array binding signal (z-score),[38],0.202
same,glycan array binding signal (z-score),[39],-1
same,glycan array binding signal (z-score),[40],0.304
same,glycan array binding signal (z-score),[41],-0.403
same,glycan array binding signal (z-score),[42],0.078

# — the supplement of paper PMC8728848
